Not every entry of the source has a single result; some have several. This is not the full list of results. The source may hold further records. Results that share an entry read as repeated measurements on other runs, samples or individuals; a mean can stand among them.

The chains behind the UniProt entries cited, without tags or fusion partners.
UniProt Q7L0J3, whole entry C297A: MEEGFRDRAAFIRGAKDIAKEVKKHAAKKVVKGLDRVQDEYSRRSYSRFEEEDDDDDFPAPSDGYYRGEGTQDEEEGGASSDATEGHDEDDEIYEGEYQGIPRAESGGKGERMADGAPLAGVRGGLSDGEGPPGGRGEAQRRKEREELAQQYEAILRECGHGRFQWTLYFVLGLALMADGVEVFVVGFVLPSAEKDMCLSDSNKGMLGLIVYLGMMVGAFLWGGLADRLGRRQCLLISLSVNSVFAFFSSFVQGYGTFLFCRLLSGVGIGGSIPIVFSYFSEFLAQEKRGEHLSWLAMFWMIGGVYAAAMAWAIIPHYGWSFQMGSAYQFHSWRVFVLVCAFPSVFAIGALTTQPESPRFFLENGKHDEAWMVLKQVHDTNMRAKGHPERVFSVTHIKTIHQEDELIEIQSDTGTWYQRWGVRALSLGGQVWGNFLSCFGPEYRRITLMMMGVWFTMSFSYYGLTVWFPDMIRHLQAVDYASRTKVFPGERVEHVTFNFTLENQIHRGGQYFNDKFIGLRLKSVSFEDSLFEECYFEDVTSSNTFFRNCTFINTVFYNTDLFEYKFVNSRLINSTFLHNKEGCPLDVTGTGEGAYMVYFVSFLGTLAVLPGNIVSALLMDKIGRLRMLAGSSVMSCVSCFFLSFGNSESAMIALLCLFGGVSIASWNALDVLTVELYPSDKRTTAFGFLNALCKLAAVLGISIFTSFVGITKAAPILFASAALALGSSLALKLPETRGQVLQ
UniProt Q7L0J3, whole entry D670A: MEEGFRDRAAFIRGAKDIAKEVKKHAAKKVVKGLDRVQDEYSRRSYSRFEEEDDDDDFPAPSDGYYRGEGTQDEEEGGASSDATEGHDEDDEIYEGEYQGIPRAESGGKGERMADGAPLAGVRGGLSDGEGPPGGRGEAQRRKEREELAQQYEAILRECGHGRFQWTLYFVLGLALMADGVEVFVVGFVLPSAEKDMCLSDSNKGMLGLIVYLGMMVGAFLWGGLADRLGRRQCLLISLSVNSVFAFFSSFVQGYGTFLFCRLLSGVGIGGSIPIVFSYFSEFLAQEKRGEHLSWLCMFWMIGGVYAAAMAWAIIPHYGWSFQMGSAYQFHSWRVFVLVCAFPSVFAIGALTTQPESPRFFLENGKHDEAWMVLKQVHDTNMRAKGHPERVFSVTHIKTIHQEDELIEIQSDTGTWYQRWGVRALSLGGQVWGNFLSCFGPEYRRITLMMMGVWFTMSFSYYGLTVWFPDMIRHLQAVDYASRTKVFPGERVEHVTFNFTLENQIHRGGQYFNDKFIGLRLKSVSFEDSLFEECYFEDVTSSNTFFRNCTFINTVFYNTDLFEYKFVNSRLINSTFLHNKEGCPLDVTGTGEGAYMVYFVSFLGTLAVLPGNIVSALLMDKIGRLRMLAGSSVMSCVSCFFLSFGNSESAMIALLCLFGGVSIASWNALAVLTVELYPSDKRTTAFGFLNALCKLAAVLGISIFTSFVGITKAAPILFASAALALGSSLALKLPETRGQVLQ
UniProt Q7L0J3, whole entry W666A: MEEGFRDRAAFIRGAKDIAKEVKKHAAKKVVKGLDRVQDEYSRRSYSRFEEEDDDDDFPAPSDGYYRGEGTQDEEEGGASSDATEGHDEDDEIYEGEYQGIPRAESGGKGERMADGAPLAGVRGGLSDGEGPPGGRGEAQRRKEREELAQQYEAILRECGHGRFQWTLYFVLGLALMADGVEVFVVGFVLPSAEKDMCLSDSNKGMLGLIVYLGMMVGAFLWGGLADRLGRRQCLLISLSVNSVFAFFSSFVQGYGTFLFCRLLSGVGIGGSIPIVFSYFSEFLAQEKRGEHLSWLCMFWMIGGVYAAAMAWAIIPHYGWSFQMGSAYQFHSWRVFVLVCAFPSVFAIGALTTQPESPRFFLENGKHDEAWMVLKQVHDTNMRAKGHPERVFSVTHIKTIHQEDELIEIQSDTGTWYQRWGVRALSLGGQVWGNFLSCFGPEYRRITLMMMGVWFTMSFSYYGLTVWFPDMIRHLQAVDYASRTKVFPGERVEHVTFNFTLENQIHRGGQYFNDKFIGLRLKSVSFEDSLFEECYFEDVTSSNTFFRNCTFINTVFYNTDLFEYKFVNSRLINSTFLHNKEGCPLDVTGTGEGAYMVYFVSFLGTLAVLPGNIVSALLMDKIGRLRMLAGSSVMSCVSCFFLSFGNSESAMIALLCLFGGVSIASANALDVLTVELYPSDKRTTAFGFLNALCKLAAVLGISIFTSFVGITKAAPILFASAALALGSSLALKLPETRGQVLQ

Assay in all cases: 3H-UCB-J (10 nM) binding, effect of mutations (Fig. 3B)
Test [1] concerns the target SV2A WT and mutants (Homo sapiens, UniProt Q7L0J3, W666A). The conditions noted are these: W666A, wild-type defined as 100%, tested as the radiolabelled form.
In test [2] the target is SV2A WT and mutants (Homo sapiens, UniProt Q7L0J3, D670A). The conditions noted are these: D670A, wild-type defined as 100%, tested as the radiolabelled form.
Test [3] concerns the target SV2A WT and mutants (Homo sapiens, UniProt Q7L0J3, C297A). The conditions noted are these: C297A, wild-type defined as 100%, tested as the radiolabelled form.

Consider `Cc1cnccc1CN1C[C@@H](c2cc(F)c(F)c(F)c2)CC1=O` [UCB-J], for which the “3H-UCB-J Binding (%)” value is reported as 2.68, 6.94, 9.40, 13.23, 6.91, 10.49% in test [1]; 4.97, 15.30, 20.47, 20.28, 12.73, 24.16% in test [2]; 15.08, 7.79, 6.97, 14.26, 18.50, 20.66% in test [3].

Source of the values: PMC12663137 (Nature Communications, 2025).
